Measured data: PubChem BioAssay AID1259308 (NCATS, 2017)
Purpose: 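Knock-downs that increase output of a recombinant reporter protein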 (primary screen). System: human HEK293 embryonic kidney cells stably expressing firefly luciferase (HEK-CMV-Luc2-Hygro). Knock-down reagent: single siRNA against human genes, 0.8 pmol siRNA per well. Timing: 72 h. Measured: 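Reporter luminescence and viable-cell signal on separate replicate plates, given as percent of non-targeting control and median/MAD z-scores, plus per-cell luciferase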. Direction: total luciferase, z-score and total luciferase, % of control: higher = more reporter protein produced; luciferase per cell, z-score: higher = more reporter output per viable cell; viable cells, % of control: higher = more viable cells. Hit rule: 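Active when the median/MAD z-score for overall luciferase is greater than 3; a gene was taken forward for validation with new siRNAs if at least two of its three siRNAs passed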. Meaning of the calls: active = raised luciferase; inactive = no rise.
The deposit covers about 59,000 reagents; this is an unselected part. Over the whole deposit, about 1,510 (2.6%) are marked active. 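Calls use total luciferase alone and ignore viability, so some active siRNAs may act by altering cell number.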 A number with no mark means an inactive call. Reagents against one gene are numbered here. Reagent sequences are not shown.

gene	reagent	total luciferase, z-score	total luciferase, % of control	luciferase per cell, z-score	viable cells, % of control
MANSC1 (MANSC domain containing 1)	1	-0.0107	81.7	0.425	81.6
MANSC1 (MANSC domain containing 1)	2	-0.383	74.3	-0.418	92.6
MANSC1 (MANSC domain containing 1)	3	2.12	124	1.09	104
TAS2R7 (taste 2 receptor member 7)	1	-1.31	55.8	-0.68	74.6
TAS2R7 (taste 2 receptor member 7)	2	0.185	85.6	0.163	91.6
TAS2R7 (taste 2 receptor member 7)	3	-0.409	73.8	-1.17	112
FNDC3A (fibronectin type III domain containing 3A)	1	-0.185	78.2	1.16	64.3
FNDC3A (fibronectin type III domain containing 3A)	2	0.643	94.7	0.427	94.5
FNDC3A (fibronectin type III domain containing 3A)	3	1.24	107	1.49	80.5
HM13 (histocompatibility minor 13)	1	-0.368	74.6	-0.841	104
HM13 (histocompatibility minor 13)	2	-0.258	76.7	-1.06	113
HM13 (histocompatibility minor 13)	3	0.0541	83	-0.675	111
ZNF321P (zinc finger protein 321, pseudogene)	1	0.331	88.5	-0.0977	101
ZNF321P (zinc finger protein 321, pseudogene)	2	-0.929	63.4	-0.463	80.1
ZNF321P (zinc finger protein 321, pseudogene)	3	0.0936	83.7	0.83	75.2
USP14 (ubiquitin specific peptidase 14)	1	-0.419	73.5	-0.163	85.8
USP14 (ubiquitin specific peptidase 14)	2	-0.435	73.2	-0.832	102
USP14 (ubiquitin specific peptidase 14)	3	-0.428	73.4	-0.462	92.6
C3P1 (complement 3 precursor pseudogene)	1	0.194	85.7	0.761	78.4
C3P1 (complement 3 precursor pseudogene)	2	2.19	125	1.14	104
C3P1 (complement 3 precursor pseudogene)	3	1.5	112	1.85	76.7
OR1S2 (olfactory receptor family 1 subfamily S member 2)	1	0.556	92.9	-0.146	108
OR1S2 (olfactory receptor family 1 subfamily S member 2)	2	0.82	98.2	-0.0466	111
OR1S2 (olfactory receptor family 1 subfamily S member 2)	3	0.169	85.2	-0.324	104
MYO5A (myosin VA)	1	0.769	97.2	1.02	83.1
MYO5A (myosin VA)	2	1.46	111	2.25	68.5
MYO5A (myosin VA)	3	-0.411	73.7	-0.298	89.1
ANO10 (anoctamin 10)	1	-0.266	76.6	-0.000521	85.6
ANO10 (anoctamin 10)	2	-0.341	75.1	-0.908	107
ANO10 (anoctamin 10)	3	0.368	89.2	0.261	93.1
RNASE12 (ribonuclease A family member 12 (inactive))	1	-0.356	74.8	-0.431	93.6
RNASE12 (ribonuclease A family member 12 (inactive))	2	-1.78	46.5	-1.69	81.3
RNASE12 (ribonuclease A family member 12 (inactive))	3	-1.52	51.6	-0.374	63.7
ANGPT1 (angiopoietin 1)	1	0.282	87.5	-0.0478	99
ANGPT1 (angiopoietin 1)	2	2.08	123	1.18	101
ANGPT1 (angiopoietin 1)	3	-1.27	56.7	0.901	50

A few values from above.
Entry of ANO10 (anoctamin 10) #3 under “total luciferase, % of control”: 89.2
Under “total luciferase, % of control”, ZNF321P (zinc finger protein 321, pseudogene) #3 has 83.7
Value of ANO10 (anoctamin 10) #2 in “total luciferase, % of control”: 75.1
C3P1 (complement 3 precursor pseudogene) #3, luciferase per cell, z-score → 1.85
Under “total luciferase, z-score”, FNDC3A (fibronectin type III domain containing 3A) #2 is entered as 0.643
MANSC1 (MANSC domain containing 1) #2, total luciferase, z-score = -0.383

Next records:
gene	reagent	total luciferase, z-score	total luciferase, % of control	luciferase per cell, z-score	viable cells, % of control
IFT25 (intraflagellar transport 25)	1	0.158	85	0.658	79.9
IFT25 (intraflagellar transport 25)	2	-0.293	76.1	0.0728	83.4
IFT25 (intraflagellar transport 25)	3	-2.18	38.5	-2.69	87.2
HMGN5 (high mobility group nucleosome binding domain 5)	1	0.00233	81.9	-0.307	99.3
HMGN5 (high mobility group nucleosome binding domain 5)	2	0.499	91.8	0.368	93.1
HMGN5 (high mobility group nucleosome binding domain 5)	3	-2.03	41.5	-2.73	94.9
POGLUT3 (protein O-glucosyltransferase 3)	1	0.0109	82.1	-0.024	92.3
POGLUT3 (protein O-glucosyltransferase 3)	2	-0.961	62.8	-0.793	86.4
POGLUT3 (protein O-glucosyltransferase 3)	3	0.0331	82.5	-0.0672	93.9
SCML2 (Scm polycomb group protein like 2)	1	0.0178	82.2	0.365	83.5
SCML2 (Scm polycomb group protein like 2)	2	-0.561	70.7	-0.667	94.2
SCML2 (Scm polycomb group protein like 2)	3	-0.00705	81.7	1.25	65.8
BORCS5 (BLOC-1 related complex subunit 5)	1	1.9	120	2.16	75.8
BORCS5 (BLOC-1 related complex subunit 5)	2	2.15	125	1.59	91.8
BORCS5 (BLOC-1 related complex subunit 5)	3	0.298	87.8	0.86	78.2
KRTAP3-3 (keratin associated protein 3-3)	1	-0.727	67.4	-1.14	102
KRTAP3-3 (keratin associated protein 3-3)	2	-0.397	74	-0.818	103
KRTAP3-3 (keratin associated protein 3-3)	3	0.228	86.4	0.275	89.8
C19orf18 (chromosome 19 open reading frame 18)	1	-0.195	78	-0.029	87.8
C19orf18 (chromosome 19 open reading frame 18)	2	-0.664	68.7	-0.712	92.6
C19orf18 (chromosome 19 open reading frame 18)	3	0.0932	83.7	0.0656	92
